doi:10.1101/609503
No constants are given. Whether binding was seen depends on the method and setting. For part of these data: Binding calls can cover weak binding; strength is not graded here.

The chains behind the UniProt entries cited, without tags or fusion partners. Where a name states a change or a piece, a line headed by the entry shows the natural chain unless it says otherwise. Residues count along the entry.
UniProt P0AFS9: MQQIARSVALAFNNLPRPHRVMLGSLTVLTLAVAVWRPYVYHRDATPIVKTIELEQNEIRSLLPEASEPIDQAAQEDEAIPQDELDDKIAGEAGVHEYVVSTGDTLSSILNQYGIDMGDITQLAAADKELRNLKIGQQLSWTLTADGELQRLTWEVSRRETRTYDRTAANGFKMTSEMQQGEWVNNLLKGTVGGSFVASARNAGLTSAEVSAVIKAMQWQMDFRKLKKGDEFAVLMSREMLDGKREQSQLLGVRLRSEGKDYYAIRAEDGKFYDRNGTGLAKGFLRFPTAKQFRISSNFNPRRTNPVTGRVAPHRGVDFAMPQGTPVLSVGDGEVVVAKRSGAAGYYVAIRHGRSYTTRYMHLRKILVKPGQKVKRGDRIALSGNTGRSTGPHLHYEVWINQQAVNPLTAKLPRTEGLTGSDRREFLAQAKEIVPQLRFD
UniProt P24228, residues 21-477: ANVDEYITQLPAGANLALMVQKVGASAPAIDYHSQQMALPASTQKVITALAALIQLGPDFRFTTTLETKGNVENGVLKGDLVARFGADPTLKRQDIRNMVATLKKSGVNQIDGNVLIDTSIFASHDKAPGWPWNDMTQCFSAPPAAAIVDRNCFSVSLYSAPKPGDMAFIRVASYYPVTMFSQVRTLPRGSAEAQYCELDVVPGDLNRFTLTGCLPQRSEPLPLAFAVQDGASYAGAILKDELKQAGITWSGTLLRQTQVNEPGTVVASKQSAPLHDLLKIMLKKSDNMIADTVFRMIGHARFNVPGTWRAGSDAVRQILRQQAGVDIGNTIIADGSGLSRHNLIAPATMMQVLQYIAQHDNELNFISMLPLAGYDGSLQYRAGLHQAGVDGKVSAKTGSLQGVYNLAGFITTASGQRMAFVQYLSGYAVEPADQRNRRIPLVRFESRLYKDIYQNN

What was measured:
[1] = molecular target: T1, NlpI (soluble version, residues 19-294) (E. coli) (UniProt P0AFB1); test: pull-down
T1 sequence (chain, NT647 RED-NHS dye on amines where used as the labelled partner (fl-NlpI)): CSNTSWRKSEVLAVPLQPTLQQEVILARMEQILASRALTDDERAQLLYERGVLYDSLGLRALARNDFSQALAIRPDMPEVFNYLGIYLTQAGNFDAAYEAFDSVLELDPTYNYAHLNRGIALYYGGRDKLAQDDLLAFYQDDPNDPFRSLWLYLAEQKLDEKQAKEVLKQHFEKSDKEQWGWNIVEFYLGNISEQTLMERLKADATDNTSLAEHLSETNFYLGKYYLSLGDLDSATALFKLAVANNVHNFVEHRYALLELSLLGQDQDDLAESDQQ

[2] = molecular target: T2, PBP7 (E. coli) (UniProt P0AFI5); test: MST + pull-down
T2 sequence (chain, NT647 RED-NHS dye on amines where used as the labelled partner (fl-PBP7)): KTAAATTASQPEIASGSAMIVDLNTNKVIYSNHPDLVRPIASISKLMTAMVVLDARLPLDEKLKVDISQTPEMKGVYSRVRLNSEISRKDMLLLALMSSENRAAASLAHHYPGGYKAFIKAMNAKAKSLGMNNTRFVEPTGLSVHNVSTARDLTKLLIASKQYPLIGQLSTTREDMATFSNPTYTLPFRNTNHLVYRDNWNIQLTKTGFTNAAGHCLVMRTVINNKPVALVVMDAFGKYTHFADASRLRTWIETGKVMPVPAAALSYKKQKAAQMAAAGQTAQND

[3] = molecular target: MepM (E. coli) (UniProt P0AFS9); test: MST

| binding [1] | binding [2] | binding [3] | Substance |
| --- | --- | --- | --- |
| binds | no binding | – | MepM (from UniProt P0AFS9) (enzyme) |
| – | – | no binding (tested: 50 μM) | PBP4 (native) (from UniProt P24228 21-477) (enzyme) |
